Consider 1 substance from publication PMC11412978.

Chains of the proteins cited; added tags and fusions are not shown.
UniProt Q16665: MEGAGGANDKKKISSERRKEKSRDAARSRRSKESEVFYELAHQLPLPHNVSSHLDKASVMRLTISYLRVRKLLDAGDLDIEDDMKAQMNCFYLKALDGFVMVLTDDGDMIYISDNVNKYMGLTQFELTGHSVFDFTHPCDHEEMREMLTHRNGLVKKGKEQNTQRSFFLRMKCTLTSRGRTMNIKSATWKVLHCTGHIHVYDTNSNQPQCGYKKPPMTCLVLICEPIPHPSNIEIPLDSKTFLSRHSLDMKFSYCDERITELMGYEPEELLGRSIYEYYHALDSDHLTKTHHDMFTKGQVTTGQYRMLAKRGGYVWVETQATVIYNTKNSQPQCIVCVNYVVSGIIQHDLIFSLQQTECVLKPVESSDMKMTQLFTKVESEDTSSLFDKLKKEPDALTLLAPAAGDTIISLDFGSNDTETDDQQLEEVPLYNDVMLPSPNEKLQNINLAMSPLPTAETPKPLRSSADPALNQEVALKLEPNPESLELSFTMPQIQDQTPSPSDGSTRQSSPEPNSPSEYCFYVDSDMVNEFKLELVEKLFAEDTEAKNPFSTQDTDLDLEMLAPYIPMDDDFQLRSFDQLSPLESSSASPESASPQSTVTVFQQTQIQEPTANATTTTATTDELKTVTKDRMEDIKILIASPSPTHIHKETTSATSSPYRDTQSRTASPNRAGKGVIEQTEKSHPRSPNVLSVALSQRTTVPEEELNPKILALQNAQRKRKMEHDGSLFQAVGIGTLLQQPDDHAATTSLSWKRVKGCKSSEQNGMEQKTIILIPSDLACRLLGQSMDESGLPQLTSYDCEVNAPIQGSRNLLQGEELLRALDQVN
UniProt P35579: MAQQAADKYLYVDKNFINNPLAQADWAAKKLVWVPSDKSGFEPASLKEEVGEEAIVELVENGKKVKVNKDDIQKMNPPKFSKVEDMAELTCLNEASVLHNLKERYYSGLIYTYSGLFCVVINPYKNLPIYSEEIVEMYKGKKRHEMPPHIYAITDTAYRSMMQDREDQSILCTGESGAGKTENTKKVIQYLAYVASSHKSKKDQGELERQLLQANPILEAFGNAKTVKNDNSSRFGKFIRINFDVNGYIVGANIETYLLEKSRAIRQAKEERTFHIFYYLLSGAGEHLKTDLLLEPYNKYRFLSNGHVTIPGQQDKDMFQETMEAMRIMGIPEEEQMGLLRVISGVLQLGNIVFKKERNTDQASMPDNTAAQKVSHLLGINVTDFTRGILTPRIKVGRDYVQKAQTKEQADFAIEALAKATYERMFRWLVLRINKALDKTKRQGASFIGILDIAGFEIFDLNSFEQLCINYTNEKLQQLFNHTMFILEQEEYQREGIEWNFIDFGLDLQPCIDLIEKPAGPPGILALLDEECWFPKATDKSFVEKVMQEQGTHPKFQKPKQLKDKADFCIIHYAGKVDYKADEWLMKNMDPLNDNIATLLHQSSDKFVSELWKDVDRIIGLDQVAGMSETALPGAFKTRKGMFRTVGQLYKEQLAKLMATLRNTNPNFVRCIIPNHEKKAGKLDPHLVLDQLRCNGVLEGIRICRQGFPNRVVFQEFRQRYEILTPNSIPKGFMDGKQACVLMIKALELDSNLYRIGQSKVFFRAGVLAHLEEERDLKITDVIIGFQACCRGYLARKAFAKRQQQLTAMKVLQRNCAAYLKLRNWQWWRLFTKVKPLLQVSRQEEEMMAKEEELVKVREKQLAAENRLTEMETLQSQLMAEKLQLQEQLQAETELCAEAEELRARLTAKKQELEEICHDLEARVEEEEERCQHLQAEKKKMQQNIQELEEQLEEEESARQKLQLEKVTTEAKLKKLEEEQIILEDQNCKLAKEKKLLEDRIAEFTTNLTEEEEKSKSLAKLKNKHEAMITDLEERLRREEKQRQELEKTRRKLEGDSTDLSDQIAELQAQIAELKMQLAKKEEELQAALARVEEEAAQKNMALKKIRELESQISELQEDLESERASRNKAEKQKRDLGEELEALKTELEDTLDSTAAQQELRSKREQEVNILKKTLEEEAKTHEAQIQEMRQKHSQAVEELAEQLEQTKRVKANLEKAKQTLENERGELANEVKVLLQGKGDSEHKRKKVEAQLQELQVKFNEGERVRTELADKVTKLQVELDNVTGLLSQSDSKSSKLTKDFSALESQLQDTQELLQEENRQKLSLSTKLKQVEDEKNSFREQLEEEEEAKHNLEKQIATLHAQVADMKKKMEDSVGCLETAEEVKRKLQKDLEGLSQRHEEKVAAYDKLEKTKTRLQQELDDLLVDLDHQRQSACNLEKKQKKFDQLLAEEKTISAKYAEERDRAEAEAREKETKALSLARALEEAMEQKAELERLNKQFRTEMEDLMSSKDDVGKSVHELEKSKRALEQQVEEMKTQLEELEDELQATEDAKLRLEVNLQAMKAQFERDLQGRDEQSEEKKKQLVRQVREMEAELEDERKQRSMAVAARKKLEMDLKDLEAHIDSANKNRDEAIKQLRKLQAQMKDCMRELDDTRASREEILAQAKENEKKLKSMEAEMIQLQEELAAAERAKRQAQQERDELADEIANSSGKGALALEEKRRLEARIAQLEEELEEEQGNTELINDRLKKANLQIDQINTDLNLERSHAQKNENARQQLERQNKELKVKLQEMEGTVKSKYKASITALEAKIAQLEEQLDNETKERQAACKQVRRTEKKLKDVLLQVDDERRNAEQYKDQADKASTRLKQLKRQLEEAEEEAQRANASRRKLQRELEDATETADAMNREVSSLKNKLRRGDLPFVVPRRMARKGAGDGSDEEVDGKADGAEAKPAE

Results are given in words; binding and its absence hold for the method and conditions named. Binding seen in cells or lysates may run through a third protein. A yes stands for co-enrichment or nearness to the bait. Other partners may have been found.

In this assay the target is hypoxia-inducible factor-1α (endogenous) (human (endogenous in SNU-387, SNU-387-LR, Hep-3B-LR, HuH-7-LR)) (UniProt Q16665). The assay is described as follows: affinity purification with mass spectrometry; immunoprecipitation with an anti-HIF-1α antibody from whole cell lysate of SNU-387 and SNU-387-LR cells; SDS-PAGE, silver staining, LC/MS.

Turning to “non-muscle myosin heavy chain 9 (endogenous) (from UniProt P35579 1-1960)”, the binding result is listed as “binds”.
